Laboratory results as given in PubChem BioAssay AID2685 (National Center for Advancing Translational Sciences (NCATS), 2010).
The list shows a part of the results. These are further read-outs of the screen, such as a control signal, another cell line or another target. No call is given for them. The list favours compounds with an active or inconclusive main result. Words in brackets tell the shape of the fitted curve; partial curves, single points and poor fits give uncertain potencies. Where a SMILES comes first, the peptide text is derived from it. The star is where a group is joined. OBn = c1ccc(CO*)cc1

Experiment: qHTS Assay for Lipid Storage Modulators in Drosophila S3 Cells;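 for cell number change: cells counted by Cell Tracker Red CMTPX staining in the red channel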
Conditions: BODIPY lipid droplet fluorescence, 18-24 h; for cell number change: measured here: cell count max response, cells fed with added oleic acid
Summary of the method: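 Drosophila S3 cells loaded with oleic acid (400 uM, as added) and compounds at several concentrations; lipid droplets imaged by 488-nm laser-scanning cytometry, 500–530 nm intensity and object ratio to cell channel. Percent activity normalized to 20 uM Triacsin C.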

[1] = measured here: cell number channel AC50, cells fed with added oleic acid
[2] = measured here: lipid fluorescence (Fed channel) AC50, cells fed with added oleic acid

| SMILES | cell number change [%] | AC50 [1] | AC50 [2] |
| --- | --- | --- | --- |
| CCOC(=O)Nc1ccc2c(COC(=O)c3ccccc3O)cc(=O)oc2c1 | 0.451 |  |  |
| O=C(NCCc1c[nH]c2ccccc12)C(=O)NCC(c1cccnc1)N1CCN(c2ccccc2)CC1 (stereo not given) | -6.41 | 0.326 µM [rising, partial curve, poor fit] |  |
| COc1cc(NS(=O)(=O)c2ccc(NC(=O)/C(=C/c3ccccc3Cl)NC(=O)c3ccccc3)cc2)nc(OC)n1 | -33.7 | 8.2 µM [falling, partial curve, poor fit] | 8.2 µM [falling, partial curve] |
| CC(=O)Nc1ccc(CN2CCC(n3nccc3NC(=O)CCc3ccccc3)CC2)cc1 | -3.4 |  | 1.3 µM [falling, partial curve] |
| COc1cccc(N2CCN(C(=O)CCCCCn3c(=S)[nH]c4cc5c(cc4c3=O)OCO5)CC2)c1 | -28.3 |  | 4.61 µM [falling, partial curve] |
| C/C(=N\NC(=O)c1ccc2c(c1)OCO2)c1ccco1 | -31.8 | 18.4 µM [falling, single point] | 29.1 µM [falling, single point] |
| O=C(Nc1ccc(Nc2ccccc2)cc1)c1cccc(F)c1 | -42.3 | 10.3 µM [falling, partial curve, poor fit] | 29.1 µM [falling, single point] |
| N#Cc1c(NC(=O)CSc2ncnc3c2cnn3-c2ccccc2Cl)sc2c1CCCC2 | -17.1 |  | 11.6 µM [rising, partial curve] |
| Cc1cnnn1-c1cccc([N+](=O)[O-])c1 | -23.5 |  |  |
| CCCCN(CC)C(=O)Cc1c(C(=O)O)[nH]c2ccc(Cl)cc12 | -13.2 |  | 23.1 µM [falling, partial curve, poor fit] |
| Cc1ccc(C(=O)N2CCN=C2SCc2ccc([N+](=O)[O-])cc2)cc1C | 32.9 | 4.61 µM [rising, partial curve] |  |
| O=C(CNC(=O)c1cc2c(n(-c3ccccc3)c1=O)CCCC2=O)c1ccccc1 | -34.6 | 29.1 µM [falling, single point] | 7.31 µM [falling, partial curve, poor fit] |
| Cc1nn(C)c(C(=O)NNC(=S)NCC(C)C)c1Cl | -13.6 |  | 0.082 µM [falling, single point] |
| N#Cc1c(N)nc(N)nc1Nc1ccc(Br)cc1 | 17.4 |  | 18.4 µM [falling, single point] |
| C/C(=N/NC(=O)CNC(=O)COc1ccccc1)c1ccc(Cl)cc1 | -10.1 |  | 23.1 µM [falling, single point] |
| O=C(O)c1cc(N=Cc2c(O)c3ccccc3oc2=O)ccc1O | 54.2 | 1.3 µM [rising, partial curve, poor fit] | 0.231 µM [rising, full curve] |
| CCOC(=O)CC(=O)CSc1nnc2sc3ccccc3n12 | 27.4 |  | 1.46 µM [rising, partial curve] |
| CCOc1ccccc1NC(=O)COC(=O)c1ccc2ccccc2n1 |  | 7.31 µM [falling, partial curve] | 0.651 µM [falling, single point] |
| Cc1c(Cl)cccc1NC(=O)COC(=O)CN1C(=O)NC(C)(C)C1=O | 8.67 |  | 29.1 µM [rising, single point] |
| CCC(=O)Nc1ccc(C(=O)COC(=O)Cc2ccsc2)cc1 | -29.9 |  | 0.116 µM [falling, full curve] |

| SMILES | cell number change [%] | AC50 [1] | AC50 [2] |
| --- | --- | --- | --- |
| CC(C)(C)c1ccc(-n2ncc3c2CCCC3NC(=O)CN2CCCC2=O)cc1 (stereo not given) | -55.9 | 13 µM [falling, partial curve] | 11.6 µM [falling, single point] |
| CCCCn1ccc(=O)c2c(C(F)(F)F)nccc21 | -7.4 |  | 0.092 µM [falling, full curve, poor fit] |
| Nc1nnn(CC(=O)N/N=C/c2ccncc2)n1 | 32.9 | 0.058 µM [rising, full curve, poor fit] |  |
| O=C(NCc1cccnc1)C1CCCN1S(=O)(=O)c1ccc(Cl)cc1 (stereo not given) | -11.3 |  |  |
| COc1cccc(CC2(CO)CCN(Cc3cnc(N4CCOCC4)s3)CC2)c1 | 23.5 |  |  |
| Cc1cc(C)n(-c2cccc(CN3CCC(CO)(Cc4ccccc4)CC3)c2)n1 | 7.78 |  | 7.31 µM [rising, partial curve, poor fit] |
| CCN1/C(=C/c2cccc[n+]2C)Sc2ccc(OC)cc21 | 52.8 | 18.4 µM [rising, partial curve, poor fit] | 0.58 µM [rising, single point] |
| Cc1cc(=O)[nH]c(Nc2cccc(Br)c2)n1 | -17.6 |  | 20.6 µM [falling, single point] |
| CC1Cc2ccccc2N1CC(=O)NC(=O)NC(C)(C)C (stereo not given) | 8.08 |  | 6.51 µM [falling, single point] |
| Cc1ccc(OCC(=O)N2CCN(S(=O)(=O)c3ccc(Cl)s3)CC2)cc1C | -44.7 | 5.17 µM [falling, full curve, poor fit] |  |
| N=c1c(C(=O)NCc2ccco2)cc2c(=O)n3ccccc3nc2n1Cc1ccc(Cl)cc1 |  |  | 3.66 µM [rising, single point] |
| O=C(Nc1ccc(S(=O)(=O)N2CCCC2)cc1)c1cccnc1 | 64.5 | 11.6 µM [rising, partial curve] |  |
| CC(C)(C)C1(C)OC(C(=O)NC2CCCCC2)C(C(=O)NC2CCCCC2)O1 (stereo not given) | -9.81 |  |  |
| COc1ccc(C(=O)N2CCC(C(=O)O)CC2)cc1 | 12.7 |  |  |
| Cc1c(Cl)cccc1Nc1nc(NCCO)c2ccccc2n1 | -30.9 | 20.6 µM [falling, single point] | 6.51 µM [rising, single point] |
| COC(=O)[C@H](Cc1ccccc1)NC(=O)[C@@H](N)CC(=O)OCc1ccccc1 (H-Asp(OBn)-Phe-OMe) | 27.6 |  |  |
| COc1cccc(CNc2nnnn2C)c1 | -7.43 |  |  |
| Cc1c(C)c2c(OCC(=O)N3CCC(C(N)=O)CC3)cc3c(c2oc1=O)CCC(C)(C)O3 | 5.61 |  | 0.92 µM [falling, full curve] |
| CCCOCCOC(=O)c1[nH]c2c(c1C)C(=O)CC(c1cc(OC)ccc1OC)C2 (stereo not given) | -13.4 |  | 20.6 µM [falling, single point] |
| COc1cc(CNCCCO)ccc1OCC(=O)NC(C)(C)C | -44.9 | 29.1 µM [falling, single point] | 32.6 µM [falling, single point] |

| SMILES | cell number change [%] | AC50 [1] | AC50 [2] |
| --- | --- | --- | --- |
| C[C@H]1CCC(=O)N([C@H](CN=[N+]=[N-])Cc2ccccc2)CC1 | -3.88 |  |  |
| COc1cc(OC)c(C(=O)Nc2cccnc2)cc1OC | -8.99 |  | 29.1 µM [falling, single point] |
| Cn1c(=O)c2c(ncn2CCCC(=N)N2CCOCC2)n(C)c1=O | -36.3 | 10.3 µM [falling, partial curve] | 7.31 µM [falling, partial curve] |
| CCOC(=O)N1CCN(S(=O)(=O)N2CCCC(C(=O)NC(C)c3ccccc3)C2)CC1 (stereo not given) | 1.71 |  |  |
| Cc1cnc(CN(C)C(=O)CC2C(=O)NCCN2Cc2cccc(F)c2F)[nH]1 (stereo not given) | 2.93 |  |  |
| O=C(Nc1nn[nH]n1)c1ccc(S(=O)(=O)N2CCCCC2)cc1 | -9.36 | 0.116 µM [falling, full curve, poor fit] |  |
| O=c1c2c3c(sc2n(CCN2CCCCC2)c(=O)n1Cc1ccco1)CCCCC3 | 113 | 5.17 µM [rising, partial curve] | 2.31 µM [rising, partial curve] |
| CCn1c(SCC(=O)Nc2ccccc2Br)nnc1-c1cnccn1 |  |  | 3.26 µM [rising, single point] |
| O=C(Cc1ccccc1)N/N=C/c1ccc(Cl)cc1Cl | -50.2 | 20.6 µM [falling, partial curve] | 20.6 µM [falling, partial curve] |
| CCNC(=O)N1CCCC(C(=O)c2ccc(OC)c(OC)c2)C1 (stereo not given) | -25.5 |  | 14.6 µM [falling, partial curve, poor fit] |
| COc1ccc(Cc2nnc(Nc3ccccc3)s2)cc1Br | -12.5 |  | 29.1 µM [rising, single point] |
| COc1ccc(/C=C/c2cc(-c3ccc(C)cc3)o[n+]2C)cc1 | -63.8 | 10.3 µM [falling, partial curve] | 8.2 µM [falling, partial curve] |
| CC1=Nn2c(nnc2-c2ccccc2)SC1 | 41 | 11.6 µM [rising, partial curve, poor fit] | 16.4 µM [rising, partial curve] |
| Cc1ccc(-c2noc(/C=C/c3ccccc3)n2)cc1 | 38 | 9.2 µM [rising, partial curve, poor fit] | 1.3 µM [rising, full curve] |
| Cc1nnc(SCc2ccc3c(c2)OCO3)s1 | -5.54 |  | 0.00461 µM [rising, full curve, poor fit] |
| C=CCOc1ccc(/C=C/C(C)=N\O)cc1 | -32.4 | 32.6 µM [falling, single point] |  |
| CCOC(=O)c1ccc(-n2c(C)nc3c(cnn3-c3ccc(Cl)cc3)c2=O)cc1 |  | 1.64 µM [rising, partial curve, poor fit] | 3.26 µM [rising, partial curve] |
| Clc1ccc(-c2cc3ccccc3nc2N2CCCC2)cc1 |  | 2.91 µM [rising, partial curve] |  |
| S=C1SCN(Cc2ccccc2)CN1Cc1ccccc1 | 11.1 | 0.517 µM [rising, full curve] | 0.58 µM [falling, single point] |

Reformatted as labelled records: four of the compounds above
COc1ccc(Cc2nnc(Nc3ccccc3)s2)cc1Br
  cell number change [%]: -12.5; AC50 [2]: 29.1 µM [rising, single point]
COc1ccc(/C=C/c2cc(-c3ccc(C)cc3)o[n+]2C)cc1
  cell number change [%]: -63.8; AC50 [1]: 10.3 µM [falling, partial curve]; AC50 [2]: 8.2 µM [falling, partial curve]
CC1=Nn2c(nnc2-c2ccccc2)SC1
  cell number change [%]: 41; AC50 [1]: 11.6 µM [rising, partial curve, poor fit]; AC50 [2]: 16.4 µM [rising, partial curve]
Cc1ccc(-c2noc(/C=C/c3ccccc3)n2)cc1
  cell number change [%]: 38; AC50 [1]: 9.2 µM [rising, partial curve, poor fit]; AC50 [2]: 1.3 µM [rising, full curve]
